Here are results for three compounds from patent US20160220710A1, “COMPOSITIONS AND METHODS FOR DELIVERING PHARMACEUTICAL AGENTS” (THE REGENTS OF THE UNIVERSITY OF MICHIGAN, priority 2015, published 2016).

Series [1] can be described thus: PA microscopy of liver and spleen cryosections of CFZ-fed mice. Conditions: 532 nm.
Series [2] in a line: PA tomography (PAT) of gelatin phantoms. The note with it: excitation 532 nm; 2 mM in DMSO or 2 mM equivalent in PBS.

As to `CC(C)/N=c1\cc2n(-c3ccc(Cl)cc3)c3ccccc3nc-2cc1Nc1ccc(Cl)cc1` [CFZ, 3-(p-chloroanilino)-10-(p-chlorophenyl)-2, 10-dihydro-2-isopropyliminophenazine], the “Contrast-to-Noise Ratio (CNR)” value in series [1] (liver) was found to be 22.4 dB; in series [1] (spleen), 24.6 dB. In addition, the values for the PA signal intensity in series [1] (liver) and in series [1] (spleen) were 36.0±12.5 mV and 45.9±21.2 mV, respectively. In addition, the PAT signal entry in series [2] was “minimally detected”.

For `CC(C)N=c1cc2n(-c3ccc(Cl)cc3)c3ccccc3nc-2cc1Nc1ccc(Cl)cc1.Cl` [CFZ-A], the PAT signal entry in series [2] is reported as “strong PAT signal”.

As for `CC(C)N=c1cc2n(-c3ccc(Cl)cc3)c3ccccc3nc-2cc1Nc1ccc(Cl)cc1.Cl` [CFZ-HCl], the PAT signal result in series [2] was “significant PAT signals”.
